This assay deals with Beclin1 (rat (endogenous in rat brain tissue)) (UniProt Q91XJ1). Kind of assay: co-IP; rat brain tissue homogenate supernatant; Protein A/G agarose with antibodies against Beclin1 and Bcl-2, 4 °C overnight, five washes with 1x PBS, immunoblot; groups Sham, Model, rt-PA. In general terms: In western blotting, separated proteins are transferred to a membrane and probed.

Chains of the proteins cited; added tags and fusions are not shown.
UniProt Q91XJ1: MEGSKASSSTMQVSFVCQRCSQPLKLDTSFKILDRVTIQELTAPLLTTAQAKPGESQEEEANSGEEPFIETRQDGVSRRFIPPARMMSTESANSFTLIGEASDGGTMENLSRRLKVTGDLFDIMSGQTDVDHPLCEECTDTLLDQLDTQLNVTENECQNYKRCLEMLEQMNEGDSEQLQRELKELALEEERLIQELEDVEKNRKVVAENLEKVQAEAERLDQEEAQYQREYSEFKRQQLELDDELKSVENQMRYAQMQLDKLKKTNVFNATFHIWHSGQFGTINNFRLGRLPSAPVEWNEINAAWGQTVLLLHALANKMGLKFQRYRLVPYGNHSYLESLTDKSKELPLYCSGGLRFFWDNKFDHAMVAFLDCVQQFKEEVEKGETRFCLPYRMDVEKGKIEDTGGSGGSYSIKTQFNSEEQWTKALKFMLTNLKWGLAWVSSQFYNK
UniProt P49950: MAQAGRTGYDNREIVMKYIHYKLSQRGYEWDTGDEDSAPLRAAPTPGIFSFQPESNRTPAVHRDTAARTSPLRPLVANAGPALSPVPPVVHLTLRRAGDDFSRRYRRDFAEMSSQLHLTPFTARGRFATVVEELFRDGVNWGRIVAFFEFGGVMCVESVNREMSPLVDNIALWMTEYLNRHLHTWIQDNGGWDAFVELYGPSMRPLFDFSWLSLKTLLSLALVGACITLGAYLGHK

No constants are given. Whether binding was seen depends on the method and setting. Binding seen in cells or lysates may run through a third protein. Some entries that bind do so weakly or less than the wild type.

As to “B cell leukemia/lymphoma 2 (Bcl-2) (from UniProt P49950 1-236)”, the binding result is listed as “binds”.
